The supplement of paper PMC10735217
Structures can show the parent of a compound that is named as a salt. The list shows a part of the results. Single values are uncertain here, since repeats match poorly.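 The human kidney-derived cells carry a stably integrated construct of eight TEAD-binding elements driving luciferase, read by luminescence in a drug-repurposing library screen. A compound counts as a hit when its signal is more than five robust Z scores above the plate mean.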

Tested on: HEK293A TEAD-LUC reporter
Assay: TEAD-luciferase reporter activity (YAP activation), robust Z score vs plate; higher = stronger YAP/TEAD activation
Settings: 24 h

Structure (SMILES)	TEAD-luciferase reporter activity (compound concentration: 200 nM)	TEAD-luciferase reporter activity (compound concentration: 2 uM)	TEAD-luciferase reporter activity (compound concentration: 10 uM)
N=C(N)NCCCCCCC(=O)NCC(O)CC(=O)NCCC(=O)O (configuration not stated)	inactive: -1.41	inactive: 2.27	inactive: 0.0746
CCN(CC)CCS(=O)(=O)[C@@H]1CCN2C(=O)c3coc(n3)CC(=O)C[C@H](O)/C=C(C)/C=C\CNC(=O)/C=C/[C@@H](C)[C@H](C(C)C)OC(=O)[C@@H]12 [Dalfopristin]	inactive: 0.649	inactive: 0.0372	inactive: -1.38
CC(=O)Oc1c(C)cc(OCC(O)CNC(C)C)c(C)c1C (configuration not stated) [metipranolol]	inactive: -1.43	inactive: -0.36	inactive: -0.246
O=C(/C=C/c1ccc2ccccc2n1)c1ccncc1	inactive: -1.38	inactive: -1.07	inactive: 0.0816
CC1CC(=O)NN=C1c1ccc2c(c1)OCC(=O)N2 (configuration not stated) [Bemoradan]	inactive: 4.11	inactive: -1.54	inactive: -0.0268
COc1ccc(-c2oc3c(CC=C(C)C)c(O)cc(O)c3c(=O)c2O)cc1 [Icaritin]	inactive: -0.948	inactive: -0.409	inactive: 1.85
NS(=O)(=O)c1cc2c(cc1Cl)NC(CSCC(F)(F)F)NS2(=O)=O (configuration not stated)	inactive: 2.45	inactive: -0.906	inactive: -0.79
O=C(NC1CCCCC1)NS(=O)(=O)c1ccc2c(c1)CCC2	inactive: -0.151	inactive: -0.0253	inactive: -0.105
Cc1cc(Nc2cc(N)ncn2)c(=O)n2c1C(=O)NC21CCCCC1 [Tomivosertib]	inactive: 0.283		inactive: -0.708
Cc1cc(Nc2cc(N)ncn2)c(=O)n2c1C(=O)NC21CCCCC1		inactive: -0.00983	
CC(=O)c1cc(C(=O)Nc2cc(Cl)c3c(c2Cl)CNCC3)ccc1OC(C)C	inactive: 4.62	inactive: -1.26	inactive: 1.56
CCn1cc(C(=O)O)c(=O)c2cc(F)c(N3CCNCC3)nc21 [enoxacin]	inactive: 2.35	inactive: 0.475	inactive: 1.33
CC(=O)c1ccc2c(c1)N(CCCN1CCC(CCO)CC1)c1ccccc1S2	inactive: 0.668	inactive: -0.544	inactive: 3.49
CCCCCC(O)c1ccc(N2C(=O)CC[C@@H]2CCCc2ccc(C(=O)O)s2)cc1 (some centres not stated) [Aganepag]	inactive: -0.305	inactive: 0.433	inactive: 2.88
O=S(=O)(Nc1cnc(Oc2cc3ccccc3cn2)c(Cl)c1)c1ccc(Cl)cc1Cl	inactive: 0.308	inactive: -1.07	inactive: -0.823
CC(C)[C@H](NC(=O)[C@H](CC(=O)O)NC(=O)[C@H](CCCCN)NC(=O)[C@@H](N)CCCNC(=N)N)C(=O)N[C@@H](Cc1ccc(O)cc1)C(=O)O [thymopentin]	inactive: -0.771	inactive: 2.06	inactive: -0.536
NNCCc1ccccc1 [Phenelzine sulfate]	inactive: 4.36	inactive: -0.142	inactive: 3.87
Cc1cc(C)c(NC(=O)CN(CC(=O)O)CC(=O)O)c(C)c1Br [Mebrofenin]	inactive: 3.39		inactive: -0.18
c1ccc(CN(CCN(Cc2ccccn2)Cc2ccccn2)Cc2ccccn2)nc1	inactive: -0.709	inactive: 0.781	inactive: 3.6

Structure (SMILES)	TEAD-luciferase reporter activity (compound concentration: 200 nM)	TEAD-luciferase reporter activity (compound concentration: 2 uM)	TEAD-luciferase reporter activity (compound concentration: 10 uM)
CN1CCN(c2nc(-c3ccc(C(=O)NC4(C(=O)NCC#N)CCCCC4)cc3)cs2)CC1	inactive: -1.68	inactive: -1.45	inactive: 1.97
CCCCC1OC(=O)c2ccccc21 (configuration not stated) [butylphthalide, CSPC]	inactive: 2.73		inactive: -1.42
CCCCC1OC(=O)c2ccccc21 (configuration not stated) [butylphthalide]		inactive: 0.0322	
CC(C)CC1NC(=O)[C@@H](C(C)C)NC(=O)[C@@H]2CCCN2C(=O)[C@@H](CC(=O)O)NC(=O)[C@@H](Cc2c[nH]c3ccccc23)NC1=O (some centres not stated)	inactive: -1.4	inactive: 0.73	inactive: 1.66
CC(C)C(=O)N1CCC(n2c(=O)[nH]c3ccccc32)CC1	inactive: -1.36		inactive: -0.516
O=C(/C=C/c1ccc(O)cc1)NC[C@@H]1CN(c2ccc(N3CCOCC3)c(F)c2)C(=O)O1	inactive: -0.605	inactive: -0.817	inactive: -1
N=C(N)c1ccc(-c2ccccc2[N+](=O)[O-])o1	inactive: 0.773	inactive: -1.65	inactive: 0.749
Cc1nccnc1N1CCCCC1	inactive: -1.33	inactive: -0.475	active: 5.46
CCN(CC)CCSC(=O)C(c1ccccc1)c1ccccc1	inactive: -0.86	inactive: -2.17	inactive: -1.29
Cc1ccccc1N1CCN(CCc2nnc3n2CCCC3)CC1 [dapiprazole, ophthalmic]	inactive: -1.08	inactive: 1.52	inactive: -2.22
NC(=O)OCC(COC(N)=O)c1ccccc1 [felbamate]		inactive: -0.489	
NC(=O)OCC(COC(N)=O)c1ccccc1 [Felbamate]	inactive: -0.785		inactive: 0.854
C(=N\C12CC3CC(CC(C3)C1)C2)/N1CCC(c2cnc[nH]2)CC1	inactive: 0.373	inactive: 0.42	inactive: 0.305
Cc1noc(-c2ccc(-c3ccc(CC(=O)O)cc3)cc2)c1NC(=O)O[C@H](C)c1ccccc1Cl	inactive: -1.19	inactive: -0.449	inactive: -1.66
Cc1cn(Cc2ccccc2)nc1OC(C)(C)C(=O)O	inactive: -0.855	inactive: 0.54	inactive: -0.463
NCCc1c[nH]c(=S)n1[C@H]1COc2c(F)cc(F)cc2C1 [Etamicastat hydrochloride]	inactive: -0.747	inactive: 1.06	inactive: -0.539
O=C(NC1CCC1)c1ccc2nccn2c1	inactive: -1.06		inactive: -1.42
COc1ccc(/C=C\c2cc(OC)c(OC)c(OC)c2)cc1OP(=O)([O-])[O-] [fosbretabulin tromethamine]	inactive: -0.355		inactive: 0.996
C[C@]1(O)[C@H](O)[C@@H](CO)O[C@H]1n1ccc(N)nc1=O	inactive: -0.551		inactive: -0.648

Structure (SMILES)	TEAD-luciferase reporter activity (compound concentration: 200 nM)	TEAD-luciferase reporter activity (compound concentration: 2 uM)	TEAD-luciferase reporter activity (compound concentration: 10 uM)
C[C@H](Nc1ncnc2[nH]cnc12)c1cc2ccc(F)cc2nc1-c1ccccn1	inactive: -0.94	inactive: -0.573	inactive: -0.291
CC12CCC3C(C1)c1c(cc(O)cc1OC3(C)C)O2 (configuration not stated)	inactive: 0.126	inactive: -0.869	inactive: -0.275
CN(c1nccc(=O)[nH]1)C1CCN(c2nc3ccccc3n2Cc2ccc(F)cc2)CC1 [mizolastine]	inactive: -1.85	inactive: 0.374	inactive: 2.03
Cc1cnc2c(c1)CCCC2C(N)=S (configuration not stated) [Tiquinamide]	inactive: -0.337	inactive: 0.309	inactive: -0.419
O=C1CN(/N=C/c2ccc(-c3ccc([N+](=O)[O-])cc3)o2)C(=O)N1 [Dantrolene??Sodium]	inactive: -1.73		inactive: 0.627
O=C1CN(/N=C/c2ccc(-c3ccc([N+](=O)[O-])cc3)o2)C(=O)N1 [dantrolene sodium]		inactive: 2.36	
CC1(C)C=C(n2ccccc2=O)c2cc(C#N)ccc2C1=O	inactive: -1.4	inactive: 0.83	inactive: -1.73
CCOc1ccc(C=C2NCCc3cc(OCC)c(OCC)cc32)cc1OCC [Drotaverine hydrochloride]	active: 5.91	inactive: -0.711	inactive: -1.05
C[C@H](CCC(=O)NCCS(=O)(=O)O)[C@H]1CC[C@H]2[C@@H]3[C@@H](O)C[C@@H]4C[C@H](O)CC[C@]4(C)[C@H]3CC[C@]12C [Sodium tauroursodeoxycholate (Tudca)]	inactive: -0.171		inactive: 0.806
C[C@H](CCC(=O)NCCS(=O)(=O)O)[C@H]1CC[C@H]2[C@@H]3[C@@H](O)C[C@@H]4C[C@H](O)CC[C@]4(C)[C@H]3CC[C@]12C [Ursodeoxycholyltaurine]		inactive: -0.245	
CCCOc1cc(N)c(Cl)cc1C(=O)NC1CCN(CCCC2CCCO2)CC1 (configuration not stated)	inactive: -0.586	inactive: -1.19	inactive: 2.05
O=c1[nH]sc2cc(Cl)ccc12	inactive: 2.27	inactive: -0.859	inactive: 2.46
N=C(NCCCCCCCCCCCN)NC(=O)c1nc(Cl)c(N)nc1N	inactive: -0.714	inactive: 2.03	inactive: -0.329
CC(=O)OCCN1CCN(CC/C=C2\c3ccccc3Sc3ccc(Cl)cc32)CC1 [Zuclopenthixol acetate]	inactive: -0.214	inactive: 1.05	inactive: -1.6
Cc1cn([C@H]2C[C@H](F)[C@@H](CO)O2)c(=O)[nH]c1=O [Alovudine]	inactive: -0.926	inactive: -0.939	inactive: 1.97
FC(F)(F)Oc1ccc(-c2ccc3nnc(C(F)(F)F)n3c2)cc1	inactive: -0.431		inactive: 3
CCC1NC(=O)C(CCCCN)NC(=O)C(Cc2c[nH]c3ccccc23)NC(=O)C(Cc2ccc(O)cc2)NC(=O)C(NC(=O)C(Cc2ccccc2)NS(=O)(=O)CCN2CCN(CCO)CC2)CSSCC(C(=O)NC(C(N)=O)C(C)O)NC1=O (configuration not stated)	inactive: -2.52	inactive: 0.415	inactive: 0.0877
CC(C)Cn1nc(-c2ccccc2)c(-c2ccccc2)c1CC(=O)O	inactive: 0.246	inactive: 2.3	inactive: 2.37

No new results follow: an excerpt of the list.
Structure (SMILES)	TEAD-luciferase reporter activity (compound concentration: 200 nM)	TEAD-luciferase reporter activity (compound concentration: 2 uM)	TEAD-luciferase reporter activity (compound concentration: 10 uM)
CCCCC1OC(=O)c2ccccc21 (configuration not stated) [butylphthalide]		inactive: 0.0322	
CC(C)CC1NC(=O)[C@@H](C(C)C)NC(=O)[C@@H]2CCCN2C(=O)[C@@H](CC(=O)O)NC(=O)[C@@H](Cc2c[nH]c3ccccc23)NC1=O (some centres not stated)	inactive: -1.4	inactive: 0.73	inactive: 1.66
CC(C)C(=O)N1CCC(n2c(=O)[nH]c3ccccc32)CC1	inactive: -1.36		inactive: -0.516
O=C(/C=C/c1ccc(O)cc1)NC[C@@H]1CN(c2ccc(N3CCOCC3)c(F)c2)C(=O)O1	inactive: -0.605	inactive: -0.817	inactive: -1
N=C(N)c1ccc(-c2ccccc2[N+](=O)[O-])o1	inactive: 0.773	inactive: -1.65	inactive: 0.749
Cc1nccnc1N1CCCCC1	inactive: -1.33	inactive: -0.475	active: 5.46
CCN(CC)CCSC(=O)C(c1ccccc1)c1ccccc1	inactive: -0.86	inactive: -2.17	inactive: -1.29
Cc1ccccc1N1CCN(CCc2nnc3n2CCCC3)CC1 [dapiprazole, ophthalmic]	inactive: -1.08	inactive: 1.52	inactive: -2.22
NC(=O)OCC(COC(N)=O)c1ccccc1 [felbamate]		inactive: -0.489	
NC(=O)OCC(COC(N)=O)c1ccccc1 [Felbamate]	inactive: -0.785		inactive: 0.854
C(=N\C12CC3CC(CC(C3)C1)C2)/N1CCC(c2cnc[nH]2)CC1	inactive: 0.373	inactive: 0.42	inactive: 0.305
